Data reported in PMC6151695, “Novel Selective Estrogen Receptor Ligand Conjugates Incorporating Endoxifen-Combretastatin and Cyclofenil-Combretastatin Hybrid Scaffolds: Synthesis and Biochemical Evaluation” (Molecules : A Journal of Synthetic Chemistry and Natural …, 2017).

Test system: MCF-7 human breast cancer cell line
Assay: Alamar Blue assay for antiproliferative effects
Assay type: cell-based
Conditions: MCF7, 72 h, MCF-7, 72 h

- IC50: 2.13 µM
SMILES: CC/C(=C(\c1ccccc1)c1ccc(OCCN(C)C)cc1)c1ccccc1 [Tamoxifen, reference compound]
